# Test results as given in US20170066780A1, “INHIBITORS OF EZH2” (Eli Lilly and Company, priority 2015, published 2017).
# Chains of the proteins cited; added tags and fusions are not shown.
# UniProt Q15910, whole entry: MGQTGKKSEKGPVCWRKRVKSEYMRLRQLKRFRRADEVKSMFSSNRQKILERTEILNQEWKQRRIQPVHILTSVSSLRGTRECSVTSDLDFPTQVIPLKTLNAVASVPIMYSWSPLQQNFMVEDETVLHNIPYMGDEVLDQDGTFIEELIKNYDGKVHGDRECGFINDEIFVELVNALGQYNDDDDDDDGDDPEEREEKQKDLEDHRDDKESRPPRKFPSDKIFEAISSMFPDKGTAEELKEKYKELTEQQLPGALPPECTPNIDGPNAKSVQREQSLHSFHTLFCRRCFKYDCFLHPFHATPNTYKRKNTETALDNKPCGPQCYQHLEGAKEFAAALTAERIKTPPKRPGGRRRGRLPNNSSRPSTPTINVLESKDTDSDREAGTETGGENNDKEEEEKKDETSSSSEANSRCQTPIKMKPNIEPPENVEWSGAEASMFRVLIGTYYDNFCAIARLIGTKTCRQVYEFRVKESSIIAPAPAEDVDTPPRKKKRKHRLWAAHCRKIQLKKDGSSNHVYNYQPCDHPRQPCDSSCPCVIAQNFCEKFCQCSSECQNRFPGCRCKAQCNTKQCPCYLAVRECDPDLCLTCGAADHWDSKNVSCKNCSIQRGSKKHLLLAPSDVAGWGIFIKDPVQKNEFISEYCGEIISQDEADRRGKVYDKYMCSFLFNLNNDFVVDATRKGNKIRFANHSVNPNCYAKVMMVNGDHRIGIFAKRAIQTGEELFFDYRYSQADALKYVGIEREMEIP
# Some entries share one result that the patent states for a list of compounds.
# Target: WT 5-mer EZH2 (PRC2 complex) (Homo sapiens, UniProt Q15910)
# Assay: EZH2 WT 384-well biochemical assay (SPA, 3H-SAM)
# Conditions: recombinant WT/mut EZH2 in the context of the PRC2 complex
row,SMILES,inhibition of the methyltransferase activity of EZH2 (in words)
1,"CCN(c1sc2c(c1C)C(=O)N(Cc1c(Cl)cc(C)[nH]c1=O)CC2)[C@H]1CC[C@H](N2CC(OC)C2)CC1 [Example 21, 5-[(4-Chloro-6-methyl-2-oxo-1,2-dihydropyridin-3-yl)methyl]-2-{ethyl[trans-4-(3-methoxyazetidin-1-yl)cyclohexyl]amino}-3-methyl-6,7-dihydrothieno[3,2-c]pyridin-4(5H)-one]",are EZH2 inhibitors
2,"CCOC1CN([C@H]2CC[C@H](N(C)c3sc4c(c3C)C(=O)N(Cc3c(C)cc(C)[nH]c3=O)CCC4)CC2)C1 [Example 37, 5-[(4,6-Dimethyl-2-oxo-1,2-dihydropyridin-3-yl)methyl]-2-{[trans-4-(3-ethoxyazetidin-1-yl)cyclohexyl](methyl)amino}-3-methyl-5,6,7,8-tetrahydro-4H-thieno[3,2-c]azepin-4-one]",are EZH2 inhibitors
3,"CCN(c1sc2c(c1C)C(=O)N(Cc1c(C)cc(C)[nH]c1=O)CC2)[C@H]1CC[C@H](N2CC(OC3CC3)C2)CC1 [Example 23, 2-[{Trans-4-[3-(cyclopropyloxy)azetidin-1-yl]cyclohexyl}(ethyl)amino]-5-[(4,6-dimethyl-2-oxo-1,2-dihydropyridin-3-yl)methyl]-3-methyl-6,7-dihydrothieno[3,2-c]pyridin-4(5H)-one]",are EZH2 inhibitors
4,"CCN(c1sc2c(c1C)C(=O)N(Cc1c(C)cc(C)[nH]c1=O)CC2)[C@H]1CC[C@H](N2CC(n3cccn3)C2)CC1 [Example 24, 5-[(4,6-Dimethyl-2-oxo-1,2-dihydropyridin-3-yl)methyl]-2-(ethyl{trans-4-[3-(1H-pyrazol-1-yl)azetidin-1-yl]cyclohexyl}amino)-3-methyl-6,7-dihydrothieno[3,2-c]pyridin-4(5H)-one]",are EZH2 inhibitors
5,"Cc1cc(C)c(CN2CCc3sc([C@H](C)[C@H]4CC[C@H](N5CC(O[C@H]6CCOC6)C5)CC4)c(C)c3C2=O)c(=O)[nH]1 [Example 13, 5-[(4,6-Dimethyl-2-oxo-1,2-dihydropyridin-3-yl)methyl]-3-methyl-2-[(1R)-1-(trans-4-[3-[(3S)-tetrahydrofuran-3-yloxy]azetidin-1-yl}cyclohexyl)ethyl]-6,7-dihydrothieno[3,2-c]pyridin-4(5H)-one]",are EZH2 inhibitors
6,"CCN(c1sc2c(c1C)C(=O)N(Cc1c(C)cc(C)[nH]c1=O)CC2)[C@H]1CC[C@H](N(C)CCOC)CC1 [Example 29, 5-[(4,6-Dimethyl-2-oxo-1,2-dihydropyridin-3-yl)methyl]-2-(ethyl{trans-4-[(2-methoxyethyl)(methyl)amino]cyclohexyl}amino)-3-methyl-6,7-dihydrothieno[3,2-c]pyridin-4(5H)-one]",are EZH2 inhibitors
7,"CCN(c1sc2c(c1C)C(=O)N(Cc1c(C)cc(C)[nH]c1=O)CC2)C1CCNCC1 [Example 28, 5-[(4,6-Dimethyl-2-oxo-1,2-dihydropyridin-3-yl)methyl]-2-[ethyl(piperidin-4-yl)amino]-3-methyl-6,7-dihydrothieno[3,2-c]pyridin-4(5H)-one]",are EZH2 inhibitors
8,"Cc1cc(C)c(CN2CCc3sc([C@H](C)[C@H]4CC[C@H](N5CC(O[C@@H]6CCOC6)C5)CC4)c(C)c3C2=O)c(=O)[nH]1 [Example 14, 5-[(4,6-Dimethyl-2-oxo-1,2-dihydropyridin-3-yl)methyl]-3-methyl-2-[(1R)-1-(trans-4-{3-[(3R)-tetrahydrofuran-3-yloxy]azetidin-1-yl}cyclohexyl)ethyl]-6,7-dihydrothieno[3,2-c]pyridin-4(5H)-one]",are EZH2 inhibitors
9,"CCN(c1sc2c(c1C)C(=O)N(Cc1c(C)cc(C)[nH]c1=O)CCC2)[C@H]1CC[C@H](N2CC(n3cccn3)C2)CC1 (single isomer, unassigned) [Example 33, 5-[(4,6-Dimethyl-2-oxo-1,2-dihydropyridin-3-yl)methyl]-2-(ethyl {trans-4-[3-(1H-pyrazol-1-yl)azetidin-1-yl]cyclohexyl}amino)-3-methyl-5,6,7,8-tetrahydro-4h-thieno[3,2-c]azepin-4-one]",are EZH2 inhibitors
10,"CS(=O)(=O)O.Cc1cc(C)c(CN2CCc3sc([C@H](C)[C@H]4CC[C@H](N(C)C)CC4)c(C)c3C2=O)c(=O)[nH]1 [Example 40, 2-{(1R)-1-[Trans-4-(dimethylamino)cyclohexyl]ethyl}-5-[(4,6-dimethyl-2-oxo-1,2-dihydropyridin-3-yl)methyl]-3-methyl-6,7-dihydrothieno[3,2-c]pyridin-4(5H)-one methanesulfonate]",are EZH2 inhibitors
11,"CCN(c1sc2c(c1C)C(=O)N(Cc1c(C)cc(C)[nH]c1=O)CC2)[C@H]1CC[C@H](N(C)C)CC1 [Example 27, 2-{[Trans-4-(dimethylamino)cyclohexyl](ethyl)amino}-5-[(4,6-dimethyl-2-oxo-1,2-dihydropyridin-3-yl)methyl]-3-methyl-6,7-dihydrothieno[3,2-c]pyridin-4(5H)-one]",are EZH2 inhibitors
12,"Cc1cc(C)c(CN2CCc3sc([C@H](C)[C@H]4CC[C@H](N5CC(N6CCOCC6)C5)CC4)c(C)c3C2=O)c(=O)[nH]1 [Example 6, 5-[(4,6-Dimethyl-2-oxo-1,2-dihydropyridin-3-yl)methyl]-3-methyl-2-[(1R)-1-{trans-4-[3-(morpholin-4-yl)azetidin-1-yl]cyclohexyl}ethyl]-6,7-dihydrothieno[3,2-c]pyridin-4(5H)-one]",are EZH2 inhibitors
13,"CCN(c1sc2c(c1C)C(=O)N(Cc1c(C)cc(C)[nH]c1=O)CC2)[C@H]1CC[C@H](N2CC(OCCOC)C2)CC1 [Example 26, 5-[(4,6-Dimethyl-2-oxo-1,2-dihydropyridin-3-yl)methyl]-2-(ethyl{trans-4-[3-(2-methoxyethoxy)azetidin-1-yl]cyclohexyl}amino)-3-methyl-6,7-dihydrothieno[3,2-c]pyridin-4(5H)-one]",are EZH2 inhibitors
14,"Cc1cc(C)c(CN2CCc3sc([C@H](C)[C@H]4CC[C@H](N5CC(n6ccnn6)C5)CC4)c(C)c3C2=O)c(=O)[nH]1 [Example 7, 5-[(4,6-Dimethyl-2-oxo-1,2-dihydropyridin-3-yl)methyl]-3-methyl-2-[(1R)-1-{trans-4-[3-(1H-1,2,3-triazol-1-yl)azetidin-1-yl]cyclohexyl}ethyl]-6,7-dihydrothieno[3,2-c]pyridin-4(5H)-one]",are EZH2 inhibitors
15,"COCCN(C)[C@H]1CC[C@H]([C@@H](C)c2sc3c(c2C)C(=O)N(Cc2c(C)cc(C)[nH]c2=O)CC3)CC1 [Example 43, 5-[(4,6-Dimethyl-2-oxo-1,2-dihydropyridin-3-yl)methyl]-2-[(1R)-1-{trans-4-[(2-methoxyethyl)(methyl)amino]cyclohexyl}ethyl]-3-methyl-6,7-dihydrothieno[3,2-C]pyridin-4(5H)-one]",are EZH2 inhibitors
16,"Cc1cc(C)c(CN2CCc3sc([C@H](C)[C@H]4CC[C@H](N5CC(OC(C)C)C5)CC4)c(C)c3C2=O)c(=O)[nH]1 [Example 11, 5-[(4,6-Dimethyl-2-oxo-1,2-dihydropyridin-3-yl)methyl]-3-methyl-2-[(1R)-{trans-4-[3-(propan-2-yloxy)azetidin-1-yl]cyclohexyl}ethyl)-6,7-dihydrothieno [3,2-c]pyridin-4(5H)-one]",are EZH2 inhibitors
17,"CCN(c1sc2c(c1C)C(=O)N(Cc1c(C)cc(C)[nH]c1=O)CCC2)[C@H]1CC[C@H](N2CC(OC)C2)CC1 [Example 34, 5-[(4,6-Dimethyl-2-oxo-1,2-dihydropyridin-3-yl)methyl]-2-{ethyl[trans-4-(3-methoxyazetidin-1-yl)cyclohexyl]amino}-3-methyl-5,6,7,8-tetrahydro-4H-thieno[3,2-c]azepin-4-one]",are EZH2 inhibitors
18,"Cc1cnn(C2CN([C@H]3CC[C@H]([C@@H](C)c4sc5c(c4C)C(=O)N(Cc4c(C)cc(C)[nH]c4=O)CC5)CC3)C2)c1 [Example 4, 5-[(4,6-Dimethyl-2-oxo-1,2-dihydropyridin-3-yl)methyl]-3-methyl-2-[(1R)-1-{trans-4-[3-(4-methyl-1H-pyrazol-1-yl)azetidin-1-yl]cyclohexyl}ethyl]-6,7-dihydrothieno[3,2-c]pyridin-4(5H)-one]",are EZH2 inhibitors
19,"COCCOC1CN([C@H]2CC[C@H](N(C)c3sc4c(c3C)C(=O)N(Cc3c(C)cc(C)[nH]c3=O)CCC4)CC2)C1 [Example 36, 5-[(4,6-Dimethyl-2-oxo-1,2-dihydropyridin-3-yl)methyl]-2-{(trans-4-[3-(2-methoxyethoxy)azetidin-1-yl]cyclohexyl}(methyl)amino]-3-methyl-5,6,7,8-tetrahydro-4H-thieno[3,2-c]azepin-4-one]",are EZH2 inhibitors
20,"COC1CN([C@H]2CC[C@H]([C@@H](C)c3sc4c(c3C)C(=O)N(Cc3c(C)cc(C)[nH]c3=O)CCC4)CC2)C1 [Example 38, 5-[(4,6-Dimethyl-2-oxo-1,2-dihydropyridin-3-yl)methyl]-2-{(1R)-1-[trans-4-(3-methoxyazetidin-1-yl)cyclohexyl]ethyl}-3-methyl-5,6,7,8-tetrahydro-4H-thieno[3,2-c]azepin-4-one]",are EZH2 inhibitors

# Same assay, conditions: recombinant WT/mut EZH2 in the context of the PRC2 complex; listed as example 1
row,SMILES,inhibition of the methyltransferase activity of EZH2 (in words)
1,"COC1CN([C@H]2CC[C@H]([C@@H](C)c3sc4c(c3C)C(=O)N(Cc3c(C)cc(C)[nH]c3=O)CC4)CC2)C1 [Example 1, 5-[(4,6-Dimethyl-2-oxo-1,2-dihydropyridin-3-yl)methyl]-2-{(1R)-1-[trans-4-(3-methoxyazetidin-1-yl)cyclohexyl]ethyl}-3-methyl-6,7-dihydrothieno[3,2-c]pyridin-4(5H)-one]",are EZH2 inhibitors
